The source of these data is publication PMC13379313.

One series deals with TrpR (UniProt P0A881). Briefly: SPR. Conditions: Trp; SPR: 1 mM SAM, 0.4 mM CoCl2 or 0.5 mM Trp, 100 ul/min, streptavidin CM5 chip; running buffer; recombinant protein; protein details: 8xHis, TEV-cleaved; label: 3' biotin on anchor strand S4 (SPR).
The target in a further series is MetJ Q45K (UniProt P0A8U6). Briefly: SPR. Conditions: SAM; SPR: 1 mM SAM, 0.4 mM CoCl2 or 0.5 mM Trp, 100 ul/min, streptavidin CM5 chip; running buffer; recombinant protein; residues 2-105; protein details: 8xHis, TEV-cleaved; label: 3' biotin on anchor strand S4 (SPR).

A negative result means that nothing was seen under these conditions. At least one verdict rests on a figure or table, not on a statement of the authors. For some assays here: Construct, isoform or probe ends are uncertain for at least one entry.

Consider “CCACGCCCTAAGGTATGCTAGTTTGAGACGTCTCAAAACAGGA / TCCTGTTTTGAGACGTCTCAAACTAGCAT [metJ single site (NR139 top/bottom)]”, for which, in the series with TrpR, the binding result was “no binding”. With “CCACGCCCTAAGGTGAGCATAGTGGTACTCGCTAGCGAGTACCTCTGACTTC / GAAGTCAGAGGTACTCGCTAGCGAGTACCACTATGCTC [trpR single site (NR206/NR207)]”, the binding result with MetJ Q45K is “no binding”.
